Data reported in patent US10022382B2, “RNA polymerase I inhibitors and uses thereof” (Tel HaShomer Medical Research Infrastructure and Services …, priority 2013, dated 2018).
Some results were stated once for a whole list of compounds, not compound by compound.

These compounds were tested on C57BL/6J mice (assay: Toxicity (LD50, survival) in the EAE model, continuous administration).
Assay type: in vivo
Protocol: The animals were evaluated for signs of acute toxicity and survival during the entire administration period in the EAE model.
The therapeutic index (LD50/ED50), which is also referred to herein as Safety Margin (SM), was then determined based on the EAE model.

SMILES | toxicity in preliminary EAE studies
Cc1cnc(CNC(=O)c2c(=S)c3ccc(N4CCCN(C)CC4)nc3n3c2sc2ccccc23)cn1 [Compound 3, 2-(4-methyl-1,4-diazepan-1-yl)-N-((5-methylpyrazin-2-yl)methyl)-5-thioxo-5H-benzo[4,5]thiazolo[3,2-a][1,8]naphthyridine-6-carboxamide] | relatively toxic
Cc1cnc(CNC(=O)c2c(=N)c3ccc(N4CCCN(C)CC4)nc3n3c2sc2ccccc23)cn1 [Compound 4, 5-imino-2-(4-methyl-1,4-diazepan-1-yl)-N-((5-methylpyrazin-2-yl)methyl)-5H-benzo[4,5]thiazolo[3,2-a][1,8]naphthyridine-6-carboxamide] | relatively toxic
C/N=c1/c(C(=O)NCc2cnc(C)cn2)c2sc3ccccc3n2c2nc(N3CCCN(C)CC3)ccc12 [Compound 5, (E/Z)-2-(4-methyl-1,4-diazepan-1-yl)-5-(methylimino)-N-((5-methylpyrazin-2-yl)methyl)-5H-benzo[4,5]thiazolo[3,2-a][1,8]naphthyridine-6-carboxamide] | relatively toxic
CCC/N=c1/c(C(=O)NCc2cnc(C)cn2)c2sc3ccccc3n2c2nc(N3CCCN(C)CC3)ccc12 [Compound 6] | relatively toxic
Cc1cnc(CNC(=O)c2/c(=N/C(C)C)c3ccc(N4CCCN(C)CC4)nc3n3c2sc2ccccc23)cn1 [Compound 7] | relatively toxic
